Source: PubChem BioAssay AID1439 (NMMLSC, 2008)
Out of some 220,000 compounds screened, about 770 (0.35%) were called active. The shares of active, inactive and inconclusive entries below differ from those in the screen. No stated cut-off is given here; in the data, active means binding response below about 49% or above about 150%; inconclusive means no clear call, values can overlap the other calls; inactive means in between.

Chains of the proteins cited; added tags and fusions are not shown.
UniProt P09471, whole entry, looked up: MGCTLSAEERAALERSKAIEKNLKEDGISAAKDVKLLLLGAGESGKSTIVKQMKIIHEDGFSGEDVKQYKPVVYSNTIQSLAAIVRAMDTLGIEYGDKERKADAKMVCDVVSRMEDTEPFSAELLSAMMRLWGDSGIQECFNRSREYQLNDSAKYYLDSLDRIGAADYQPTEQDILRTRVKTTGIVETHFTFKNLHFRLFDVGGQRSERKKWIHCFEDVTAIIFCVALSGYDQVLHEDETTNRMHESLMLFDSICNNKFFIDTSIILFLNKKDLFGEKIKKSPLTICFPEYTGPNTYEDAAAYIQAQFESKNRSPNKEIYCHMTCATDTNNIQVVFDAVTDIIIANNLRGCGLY

Each compound was assayed against Guanine nucleotide-binding protein G(o) subunit alpha (Homo sapiens) (UniProt P09471) (assay: RGS7-Galphao binding modulators, primary screen, biochemical, multiplexed bead flow cytometry (AID 1439;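 further: fluorescent Galphao held in activated GDP-AlF4 state binding bead-coupled RGS7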)). Conditions: at 10 µM, actives lie on both sides.

Row | SMILES | binding response (% of control)
1 | NC(=O)c1ccc(NC(=O)COC(=O)c2cc(S(=O)(=O)N3CCOCC3)ccc2N2CCCCC2)cc1 | inconclusive: 166%
2 | O=C(CNC(=O)c1ccccc1Br)N/N=C/c1ccc(O)cc1 | inconclusive: 99.5%
3 | COc1cccc(C(=O)NNC(=O)CCC(=O)O)c1 | inconclusive: 110%
4 | CCN(CC)C(=O)C1CCCN(Cc2cccc(Oc3ccccc3)c2)C1 (stereo unspecified) | inconclusive: 101%
5 | N/C(=N\OC(=O)c1cccc(Cn2cc(C(F)(F)F)ccc2=O)c1)c1ccc(Cl)cc1 | inconclusive: 116%
6 | O=C(Nc1ncn[nH]1)c1ccc(S(=O)(=O)N2CCOCC2)cc1 | inconclusive: 102%
7 | O=C(CCC(=O)NNC(=O)COc1ccccc1)NCc1ccccc1 | inactive: 95.2%
8 | COCCNC(=O)CSc1nc2scc(-c3ccccc3)c2c(=O)[nH]1 | inconclusive: 102%
9 | O=C(Cc1nn[nH]n1)Nc1ccc(F)cc1F | inconclusive: -37.5%
10 | CC(=O)Nc1ccc(NC(=O)CSc2ccc([N+](=O)[O-])cn2)cc1 | inconclusive: 91.6%
11 | O=C(NNC1=NCCC1)c1ccc(Br)cc1 | inactive: 111%
12 | Cc1n[nH]c(C)c1CNCc1c(C(=O)N2CCCCCCC2)nc2ccc(Cl)cn12 | inconclusive: 67.2%
13 | Oc1cccc(/C=N/N2CCN(C3c4ccccc4-c4ccccc43)CC2)c1 | inconclusive: 21.9%
14 | COc1ccc(NC(=O)CNc2cc(S(=O)(=O)N3CCOCC3)ccc2NCC2CCCO2)cc1 (stereo unspecified) | inconclusive: 88.4%
15 | Cn1nc(NC(=O)C(F)(F)F)c2ncc(-c3ccc(Cl)cc3)nc21 | inconclusive: 126%
16 | O=C(NNc1c(Cl)cncc1Cl)c1sccc1Cl | inconclusive: 101%
17 | CCn1nnnc1NCc1cccc(Cl)c1 | inconclusive: 147%
18 | COc1cc(S(N)(=O)=O)c(OC)cc1N | inconclusive: 118%
19 | Cc1cccc(NC(=O)Cn2nnc3sc4c(c3c2=O)CC(C)(C)OC4)c1 | inconclusive: 24.7%
20 | O=C(Nc1ccccc1N1CCOCC1)c1csc2c1CCCC2 | inconclusive: 123%
21 | CC(=O)Nc1ccc(NC(=O)Cn2c(=O)n(-c3ccccc3)c(=O)c3oc4ccccc4c32)cc1 | inconclusive: 68.4%
22 | CCOC(=O)c1nnn2c1nc(N1CCCCC1)c1ccccc12 | inconclusive: 193%
23 | CCOc1ccccc1NC(=O)N1CCN(S(C)(=O)=O)CC1 | inactive: 94.6%

Row | SMILES | binding response (% of control)
24 | CCC(NC(=O)c1ccccc1NC(=O)c1ccccc1)C(=O)NNC(=O)c1cccnc1 (stereo unspecified) | inconclusive: 68.8%
25 | Cc1cc(N(C)C)ccc1N=Nc1ccc2ncccc2c1 | inconclusive: 70.2%
26 | CN(C/C=C/c1ccccc1)C1CCCCC1 | inconclusive: 91.7%
27 | COc1cccc(/C=C/C(=O)NCc2cn3cc(Cl)ccc3n2)c1OC | inactive: 89.5%
28 | O=C(CP(=O)(c1ccccc1)c1ccccc1)Nc1nc2ccccc2s1 | inconclusive: 142%
29 | CCOC(=O)C1(CC)NC(c2ccco2)C2C(=O)N(C)C(=O)C21 (stereo unspecified) | inactive: 98.6%
30 | O=C(c1ccc(F)cc1)N1CCN2C(=O)c3ccccc3C12c1ccccc1 (stereo unspecified) | inconclusive: 105%
31 | COc1cccc(NC(=O)Cn2c(=O)n(-c3ccccc3)c(=O)c3sccc32)c1 | inconclusive: 116%
32 | COc1ccc(CCn2c(-c3ccc(OC)cc3)nc3c(c(=O)c4ccccc4n3C)c2=O)cc1 | inconclusive: 109%
33 | N#Cc1c(-c2ccccc2)nc(SCC(=O)N(c2ccccc2)c2ccccc2)[nH]c1=O | inactive: 51.1%
34 | CCC(Oc1cc(Cl)ccc1Cl)C(=O)NNC(=O)CCC(=O)O (stereo unspecified) | inactive: 81%
35 | C/C(=N\N1CCN(Cc2ccc(Cl)cc2)CC1)c1ccc(F)cc1 | inconclusive: 89.2%
36 | CCOc1ccc(/C=N/n2cc(-c3ccccc3)[nH]c2=S)cc1 | inconclusive: 80.3%
37 | Cn1cc(NC(=O)c2cc(NC(=O)c3cc(NC=O)cn3C)cn2C)cc1C(=O)NCCC(=N)N | inconclusive: 69.5%
38 | COC(=O)C(C)NC(=O)c1ccc(C(C)(C)C)cc1 (stereo unspecified) | inactive: 98.8%
39 | COc1cccc(-c2cc(C(F)(F)F)c(C#N)c(=O)[nH]2)c1 | inconclusive: 116%
40 | Cc1ccc(S(=O)(=O)N2CCOCC2)cc1C(=O)N(C)CCOc1ccc(Cl)cc1 | inconclusive: 62.4%
41 | CCOC(=O)c1c(C)[nH]c(C(=O)CN2C(=O)NC3(CCCC3)C2=O)c1C | inconclusive: 108%
42 | Cc1ccc(NC(=O)CN(C)CC(=O)Nc2cccc(F)c2)cc1S(=O)(=O)N1CCCCCC1 | inactive: 112%
43 | O=[N+]([O-])c1ccccc1N/N=C\c1ccccc1F | inconclusive: 91%
44 | COc1cccc(OC)c1C(=O)Nc1nc2ccc([N+](=O)[O-])cc2s1 | inactive: 95.3%
45 | Cn1c(SCC#N)nc2ccccc2c1=O | inconclusive: 106%

2 entries from above, with tabs:
Row	SMILES	binding response (% of control)
36	CCOc1ccc(/C=N/n2cc(-c3ccccc3)[nH]c2=S)cc1	inconclusive: 80.3%
37	Cn1cc(NC(=O)c2cc(NC(=O)c3cc(NC=O)cn3C)cn2C)cc1C(=O)NCCC(=N)N	inconclusive: 69.5%

Remaining list, next part:

Row | SMILES | binding response (% of control)
47 | CCCN(CCC)CCCn1c(=O)[nH]c2ccccc21 | inconclusive: 124%
48 | CC(C)(C)c1ccc(-c2noc(-c3ccno3)n2)cc1 | inconclusive: 115%
49 | COc1ccc(C2=NN(C(=S)Nc3ccccc3)C(c3ccccc3)C2)cc1 (stereo unspecified) | inactive: 118%
50 | CC(C)(C)/C=N/NC(=O)C1CC1 | inconclusive: 98%
51 | CC(=O)OCCOCn1cnn2c(=O)c(Br)c(C)nc12 | inconclusive: 111%
52 | Nc1nc(C2CCOCC2)cs1 | inconclusive: 10.1%
53 | Cc1[nH]c2ccccc2c1NC(=O)CN1CCN(C(=O)c2ccco2)CC1 | inconclusive: 177%
54 | Cc1cc(-c2cccs2)c(C#N)c(=S)[nH]1 | inconclusive: 110%
55 | CC1CCC2(CC1)NC(=O)N(CC(=O)c1cn(CCC#N)c3ccccc13)C2=O (stereo unspecified) | inconclusive: 62.1%
56 | CC(C)CCNC(=O)NC(=O)COC(=O)CNC(=O)C1CCCCC1 | inconclusive: 88.3%
57 | CCN(CC)CCOC(=O)c1ccc(NC(=O)CNC(=O)c2ccccc2)cc1 | inactive: 98.5%
58 | CC1CCN(C(=O)Nc2cccc(NC(=O)N3CCC(C)CC3)c2)CC1 | inactive: 92.7%
59 | Cc1ccc(S(C)(=O)=NC(=O)c2cc(C)on2)cc1 (stereo unspecified) | inconclusive: 128%
60 | Cc1ccc(NC(=O)c2sc(N)nc2-c2ccccc2)cc1C | inconclusive: 99.1%
61 | Nc1ccc(SC(F)(F)F)cc1 | inconclusive: 93.1%
62 | C(=Nc1ccc(N2CCOCC2)cc1)c1c[nH]c2ccccc12 | inconclusive: 97.2%
63 | Cc1cc(C)c(NC(=O)Cn2c([N+](=O)[O-])cnc2C)c(C)c1 | inconclusive: 97.4%
64 | CCCCC(=O)OCc1nc2ccccc2s1 | inconclusive: 99.9%
65 | CC1(C)CCCC2=C1CC1C(=O)N(N)C(=O)C1C2 (stereo unspecified) | inconclusive: 89.3%
66 | CN(C)C=Nc1ccc(Cl)c(Cl)c1 | inconclusive: 81.7%
67 | CNc1nc(-c2cccs2)cc(C(F)(F)F)c1C#N | inconclusive: 102%
68 | O=C(Cn1nnc2ccccc21)Nc1ccc([N+](=O)[O-])cc1 | inconclusive: 88.5%
69 | COc1cc(/C=N/Nc2nc3ccccc3s2)ccc1O | inconclusive: 106%

Row | SMILES | binding response (% of control)
70 | O=Cc1[nH]c2ccccc2c1N(C(=O)CCl)c1ccc([N+](=O)[O-])cc1 | inconclusive: 129%
71 | O=C(O)CSc1nc(-c2ccccc2)nc2c1CCCC2 | inconclusive: 103%
72 | O=C(N/N=C/c1ccc2c(c1)OCCO2)c1ccncc1 | inconclusive: 2.96%
73 | CC1CN(c2ccc(NC(=S)NNCCC#N)cc2)CC(C)O1 (stereo unspecified) | inconclusive: 115%
74 | O=C(c1ccc2c(c1)OCO2)N1CCC2(CC1)Oc1ccc(Cl)cc1C(=O)C21CC(c2cccnc2)=NO1 (stereo unspecified) | inconclusive: 100%
75 | O=S(=O)(Nc1cccc(CCc2ccccn2)c1)c1ccc(Cl)cc1 | inconclusive: 88.1%
76 | CCOC(=O)C1=C(CC)Nc2ccccc2N=C1NC(=O)c1ccc(OC)c(S(=O)(=O)N2CCCCC2C)c1 (stereo unspecified) | inconclusive: 124%
77 | COc1ccc(/C=C/c2nnc(NC(=O)C(C)(C)C)s2)cc1 | inconclusive: 73.2%
78 | O=C(Cc1ccccc1)c1c[nH]c(C(=O)NCCCN2CCOCC2)c1 | inconclusive: 112%
79 | O=C(Nc1nnc(C2CC2)s1)c1cc(S(=O)(=O)N2CCCCC2)ccc1N1CCOCC1 | inconclusive: 95.5%
80 | CC(=O)c1sc(NC(=O)c2cc(=O)c3ccccc3o2)nc1C | inconclusive: 112%
81 | O=C(O)CCC(=O)NN1C(=O)c2ccccc2NC1c1ccc(F)cc1 (stereo unspecified) | inconclusive: 118%
82 | COc1ccccc1NS(=O)(=O)c1ccc(C)c(NC(=O)NCCCl)c1 | inconclusive: 99.8%
83 | CCCCC1=CC2=CC(=O)C(C)(OC(=O)CC)C(=O)C2=CN1Cc1ccco1 (stereo unspecified) | inconclusive: 106%
84 | CCOC(=O)c1ccc(COc2ccc(C(C)C)cc2)o1 | inactive: 98.6%
85 | O=C(NCC1CCCO1)C(c1cccs1)N(Cc1cccs1)C(=O)c1ccc(-c2ccccc2)[nH]1 (stereo unspecified) | inactive: 102%
86 | OCCC1CN(CCCc2ccccc2)CCN1Cc1ccccc1 (stereo unspecified) | inconclusive: 114%
87 | COC(=O)/C(C#N)=C/c1c(N2CCN(Cc3ccc4c(c3)OCO4)CC2)nc2c(C)cccn2c1=O | inconclusive: 80.4%
88 | COc1ccc(CCN(Cc2cc3cc(C)c(C)cc3nc2Cl)C(=O)C2CC2)cc1 | inactive: 98.6%
89 | Cc1cc(C)n2c(SCCO)nnc2n1 | inconclusive: 131%
90 | CCCCC(=O)NC(=S)Nc1cccc(NC(=O)c2ccccc2)c1 | inconclusive: 115%
91 | COc1cc2c(ccc3cc(OC)c(OC)c(O)c32)cc1O | inconclusive: 157%

Given tab-delimited: 4 of the compounds above
Row	SMILES	binding response (% of control)
73	CC1CN(c2ccc(NC(=S)NNCCC#N)cc2)CC(C)O1 (stereo unspecified)	inconclusive: 115%
81	O=C(O)CCC(=O)NN1C(=O)c2ccccc2NC1c1ccc(F)cc1 (stereo unspecified)	inconclusive: 118%
90	CCCCC(=O)NC(=S)Nc1cccc(NC(=O)c2ccccc2)c1	inconclusive: 115%
91	COc1cc2c(ccc3cc(OC)c(OC)c(O)c32)cc1O	inconclusive: 157%
